These are yes or no findings as the source states them, for the method shown. In cells and extracts the contact can be indirect. Binding can be weak; no strength is given.
T1: p120 (human (endogenous in LNCaP)) (UniProt O60716)
T1 sequence: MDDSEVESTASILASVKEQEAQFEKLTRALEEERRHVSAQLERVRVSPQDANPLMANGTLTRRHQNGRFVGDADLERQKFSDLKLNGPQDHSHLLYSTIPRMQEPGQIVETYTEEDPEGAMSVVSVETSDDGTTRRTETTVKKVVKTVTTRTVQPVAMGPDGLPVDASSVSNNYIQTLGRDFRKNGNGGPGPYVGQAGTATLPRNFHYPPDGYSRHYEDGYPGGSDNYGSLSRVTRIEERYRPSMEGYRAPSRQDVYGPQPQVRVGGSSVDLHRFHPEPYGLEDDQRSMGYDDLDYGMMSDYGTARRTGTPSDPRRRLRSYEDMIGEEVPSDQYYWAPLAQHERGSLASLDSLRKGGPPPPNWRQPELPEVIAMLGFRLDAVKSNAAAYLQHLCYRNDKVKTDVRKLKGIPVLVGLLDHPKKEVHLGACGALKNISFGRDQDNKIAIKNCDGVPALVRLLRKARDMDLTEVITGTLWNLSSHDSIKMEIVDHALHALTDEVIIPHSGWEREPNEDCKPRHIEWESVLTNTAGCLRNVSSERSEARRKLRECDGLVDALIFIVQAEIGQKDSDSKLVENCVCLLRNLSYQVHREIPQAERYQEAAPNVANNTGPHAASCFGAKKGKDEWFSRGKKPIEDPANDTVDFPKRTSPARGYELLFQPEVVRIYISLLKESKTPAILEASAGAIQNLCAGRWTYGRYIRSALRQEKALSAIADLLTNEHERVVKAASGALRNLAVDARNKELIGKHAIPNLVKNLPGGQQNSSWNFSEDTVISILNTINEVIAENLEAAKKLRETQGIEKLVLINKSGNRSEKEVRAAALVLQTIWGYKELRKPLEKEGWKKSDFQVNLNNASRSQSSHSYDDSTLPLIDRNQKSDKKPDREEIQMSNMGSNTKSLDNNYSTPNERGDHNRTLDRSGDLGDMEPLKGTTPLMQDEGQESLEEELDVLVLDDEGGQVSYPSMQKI


Assays:
Experiment in all cases: co-IP; lysates in NTEN buffer (100 mM NaCl, 20 mM Tris-HCl pH 8.0, 0.5 mM EDTA, 0.5% Nonidet P-40) of parental LNCaP cells (300 μg protein) and of the δ-catenin-overexpressing clone OE1b; incubated 4-16 hours with precipitating antibodies on protein A/G PLUS-agarose beads; IgG as control; SDS-PAGE and Western blot
[1] = target: T1, p120 (human (endogenous in LNCaP))
[2] = target: E-cadherin (human (endogenous in LNCaP))
[3] = target: α-catenin (human (endogenous in LNCaP))

Molecule | binding [1] | binding [2] | binding [3]
E-cadherin (human (endogenous in LNCaP)) | binds | – | –
δ-catenin (endogenous in parental LNCaP cells) (protein, UniProt Q9UQB3 1-1225) MFARKPPGAAPLGAMPVPDQPSSASEKTSSLSPGLNTSNGDGSETETTSAILASVKEQELQFERLTRELEAERQIVASQLERCKLGSETGSMSSMSSAEEQFQWQSQDGQKDIEDELTTGLELVDSCIRSLQESGILDPQDYSTGERPSLLSQSALQLNSKPEGSFQYPASYHSNQTLALGETTPSQLPARGTQARATGQSFSQGTTSRAGHLAGPEPAPPPPPPPREPFAPSLGSAFHLPDAPPAAAAAALYYSSSTLPAPPRGGSPLAAPQGGSPTKLQRGGSAPEGATYAAPRGSSPKQSPSRLAKSYSTSSPINIVVSSAGLSPIRVTSPPTVQSTISSSPIHQLSSTIGTYATLSPTKRLVHASEQYSKHSQELYATATLQRPGSLAAGSRASYSSQHGHLGPELRALQSPEHHIDPIYEDRVYQKPPMRSLSQSQGDPLPPAHTGTYRTSTAPSSPGVDSVPLQRTGSQHGPQNAAAATFQRASYAAGPASNYADPYRQLQYCPSVESPYSKSGPALPPEGTLARSPSIDSIQKDPREFGWRDPELPEVIQMLQHQFPSVQSNAAAYLQHLCFGDNKIKAEIRRQGGIQLLVDLLDHRMTEVHRSACGALRNLVYGKANDDNKIALKNCGGIPALVRLLRKTTDLEIRELVTGVLWNLSSCDALKMPIIQDALAVLTNAVIIPHSGWENSPLQDDRKIQLHSSQVLRNATGCLRNVSSAGEEARRRMRECDGLTDALLYVIQSALGSSEIDSKTVENCVCILRNLSYRLAAETSQGQHMGTDELDGLLCGEANGKDAESSGCWGKKKKKKKSQDQWDGVGPLPDCAEPPKGIQMLWHPSIVKPYLTLLSECSNPDTLEGAAGALQNLAAGSWKWSVYIRAAVRKEKGLPILVELLRIDNDRVVCAVATALRNMALDVRNKELIGKYAMRDLVHRLPGGNNSNNTASKAMSDDTVTAVCCTLHEVITKNMENAKALRDAGGIEKLVGISKSKGDKHSPKVVKAASQVLNSMWQYRDLRSLYKKDGWSQYHFVASSSTIERDRQRPYSSSRTPSISPVRVSPNNRSASAPASPREMISLKERKTDYECTGSNATYHGAKGEHTSRKDAMTAQNTGISTLYRNSYGAPAEDIKHNQVSAQPVPQEPSRKDYETYQPFQNSTRNYDESFFEDQVHHRPPASEYTMHLGLKSTGNYVDFYSAARPYSELNYETSHYPASPDSWV | – | binds | binds

Other lines, results leading:

binding [1] | binding [2] | binding [3] | Molecule
binds | – | – | α-catenin (human (endogenous in LNCaP))
– | binds | binds | p120 (protein, UniProt O60716 1-968) MDDSEVESTASILASVKEQEAQFEKLTRALEEERRHVSAQLERVRVSPQDANPLMANGTLTRRHQNGRFVGDADLERQKFSDLKLNGPQDHSHLLYSTIPRMQEPGQIVETYTEEDPEGAMSVVSVETSDDGTTRRTETTVKKVVKTVTTRTVQPVAMGPDGLPVDASSVSNNYIQTLGRDFRKNGNGGPGPYVGQAGTATLPRNFHYPPDGYSRHYEDGYPGGSDNYGSLSRVTRIEERYRPSMEGYRAPSRQDVYGPQPQVRVGGSSVDLHRFHPEPYGLEDDQRSMGYDDLDYGMMSDYGTARRTGTPSDPRRRLRSYEDMIGEEVPSDQYYWAPLAQHERGSLASLDSLRKGGPPPPNWRQPELPEVIAMLGFRLDAVKSNAAAYLQHLCYRNDKVKTDVRKLKGIPVLVGLLDHPKKEVHLGACGALKNISFGRDQDNKIAIKNCDGVPALVRLLRKARDMDLTEVITGTLWNLSSHDSIKMEIVDHALHALTDEVIIPHSGWEREPNEDCKPRHIEWESVLTNTAGCLRNVSSERSEARRKLRECDGLVDALIFIVQAEIGQKDSDSKLVENCVCLLRNLSYQVHREIPQAERYQEAAPNVANNTGPHAASCFGAKKGKDEWFSRGKKPIEDPANDTVDFPKRTSPARGYELLFQPEVVRIYISLLKESKTPAILEASAGAIQNLCAGRWTYGRYIRSALRQEKALSAIADLLTNEHERVVKAASGALRNLAVDARNKELIGKHAIPNLVKNLPGGQQNSSWNFSEDTVISILNTINEVIAENLEAAKKLRETQGIEKLVLINKSGNRSEKEVRAAALVLQTIWGYKELRKPLEKEGWKKSDFQVNLNNASRSQSSHSYDDSTLPLIDRNQKSDKKPDREEIQMSNMGSNTKSLDNNYSTPNERGDHNRTLDRSGDLGDMEPLKGTTPLMQDEGQESLEEELDVLVLDDEGGQVSYPSMQKI
